This passage reports binding results from paper PMC12663352.

Sequences of proteins named here, by UniProt entry; tags and fusion partners are left off.
UniProt Q7TMB8: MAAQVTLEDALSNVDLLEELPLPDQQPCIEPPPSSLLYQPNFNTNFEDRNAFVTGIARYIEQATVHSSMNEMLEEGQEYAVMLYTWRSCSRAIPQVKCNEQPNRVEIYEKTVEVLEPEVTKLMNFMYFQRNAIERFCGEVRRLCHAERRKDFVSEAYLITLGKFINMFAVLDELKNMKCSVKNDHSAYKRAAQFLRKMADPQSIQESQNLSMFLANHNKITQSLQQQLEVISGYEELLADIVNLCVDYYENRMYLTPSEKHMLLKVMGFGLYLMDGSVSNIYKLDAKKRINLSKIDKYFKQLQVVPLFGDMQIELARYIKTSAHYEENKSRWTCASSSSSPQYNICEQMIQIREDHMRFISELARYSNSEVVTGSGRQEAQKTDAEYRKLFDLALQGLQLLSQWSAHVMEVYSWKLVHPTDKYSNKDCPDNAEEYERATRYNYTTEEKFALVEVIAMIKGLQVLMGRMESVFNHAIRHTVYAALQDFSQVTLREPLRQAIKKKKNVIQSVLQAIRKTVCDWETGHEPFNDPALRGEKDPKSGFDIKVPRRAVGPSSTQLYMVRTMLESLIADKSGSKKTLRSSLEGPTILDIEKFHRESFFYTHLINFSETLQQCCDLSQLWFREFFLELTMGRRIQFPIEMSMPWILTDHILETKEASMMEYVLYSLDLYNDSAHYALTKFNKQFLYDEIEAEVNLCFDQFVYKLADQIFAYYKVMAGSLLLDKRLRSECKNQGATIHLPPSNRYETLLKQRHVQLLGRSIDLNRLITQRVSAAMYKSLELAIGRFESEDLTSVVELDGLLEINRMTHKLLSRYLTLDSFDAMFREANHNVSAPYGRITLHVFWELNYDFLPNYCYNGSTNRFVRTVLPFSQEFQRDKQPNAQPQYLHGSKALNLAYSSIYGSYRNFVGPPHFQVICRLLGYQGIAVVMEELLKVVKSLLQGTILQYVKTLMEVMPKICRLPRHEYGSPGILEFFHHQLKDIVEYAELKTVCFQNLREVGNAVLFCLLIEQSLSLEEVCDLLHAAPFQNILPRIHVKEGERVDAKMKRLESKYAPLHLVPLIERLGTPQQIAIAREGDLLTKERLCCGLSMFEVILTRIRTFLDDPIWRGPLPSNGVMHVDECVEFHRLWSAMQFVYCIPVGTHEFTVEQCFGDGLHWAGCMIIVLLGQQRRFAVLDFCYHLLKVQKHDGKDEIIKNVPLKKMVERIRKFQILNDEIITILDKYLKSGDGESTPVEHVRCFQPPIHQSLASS
UniProt Q61701: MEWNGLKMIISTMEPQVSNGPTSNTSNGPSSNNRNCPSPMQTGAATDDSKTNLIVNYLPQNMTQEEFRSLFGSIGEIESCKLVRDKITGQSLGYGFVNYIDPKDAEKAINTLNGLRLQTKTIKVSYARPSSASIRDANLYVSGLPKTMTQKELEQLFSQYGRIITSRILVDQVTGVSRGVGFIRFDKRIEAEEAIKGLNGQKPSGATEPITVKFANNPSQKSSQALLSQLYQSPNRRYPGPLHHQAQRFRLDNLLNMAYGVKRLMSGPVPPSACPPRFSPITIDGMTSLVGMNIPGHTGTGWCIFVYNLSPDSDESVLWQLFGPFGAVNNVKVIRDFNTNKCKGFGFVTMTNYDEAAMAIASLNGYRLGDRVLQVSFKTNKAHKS
UniProt P70372: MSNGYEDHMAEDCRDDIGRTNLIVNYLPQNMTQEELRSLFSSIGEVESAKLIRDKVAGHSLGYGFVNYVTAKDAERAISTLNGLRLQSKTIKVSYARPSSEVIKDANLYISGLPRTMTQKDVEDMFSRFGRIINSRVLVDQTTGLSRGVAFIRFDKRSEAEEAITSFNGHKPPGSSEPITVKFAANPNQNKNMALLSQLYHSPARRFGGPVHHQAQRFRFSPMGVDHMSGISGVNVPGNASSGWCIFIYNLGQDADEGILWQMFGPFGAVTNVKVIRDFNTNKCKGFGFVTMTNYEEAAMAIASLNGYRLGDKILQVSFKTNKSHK

The target of the test is Cytoplasmic FMRP-interacting protein 1 (CYFIP1) (mouse (endogenous in primary cortical neurons)) (UniProt Q7TMB8). In words: co-IP; CYFIP1 immunoprecipitation on protein extracts from DIV 3 WT cortical neurons; HuD/Elavl4 and HuR/Elavl1 found in the precipitate (Fig. S4d).

These are yes or no findings as the source states them, for the method shown. Binding seen in cells or lysates may run through a third protein. Some entries that bind do so weakly or less than the wild type.

On to HuD/Elavl4 (from UniProt Q61701 1-385), for which the binding entry is listed as “binds”.
The result for HuR/Elavl1 (from UniProt P70372 1-326) reads “binds”.
